From ChEMBL document CHEMBL3988442, “University of Dundee, Small-Polar-MMV Screening Library” (2021).

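Viability assay of Plasmodium falciparum sporozoites; the read-out is not stated. The concentration is filed as 10 mM, unlikely as a test dose, so the dose is not known. The record gives no direction; compounds that gave an IC50 in retests scored well above the rest, so higher reads as lower viability. Strong results were mostly tested again. Size under these conditions: about 34,000 compounds, about 280 of them at 50% or above in at least one test.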

Values are the deposited “Percent Effect”, in %. How 0% and 100% were set is not recorded. Most values in the screen are low, and negative values occur. The compounds are a random part of those screened. Two or more numbers in one place are separate tests of the same structure; such repeats can differ widely.

compound | effect
O=C(CO)N1CCC(c2ccnc(Nc3cc(C(F)(F)F)ccn3)n2)C1 (centres unmarked) | 4.059
[H][C@@]12CNC[C@]1([H])CN(C(=O)C1CCCC1)C2 | 12.7
COCC1CN(S(C)(=O)=O)Cc2ncn(CC3CC3)c21 (centres unmarked) | -0.9227
COc1ncccc1CNC(=O)NC1CCCOc2ccccc21 (centres unmarked) | 0.4489
CS(=O)(=O)NCCCN1CCCC1c1cccc(Br)c1 (centres unmarked) | 5.159
CCc1nc(C2CCCN2C(=O)c2cc3c(s2)CCC3)no1 (centres unmarked) | -41.52 and -21.79 and 3.233
CC(Cn1cccn1)NCc1csc(-c2ccsc2)n1 (centres unmarked) | 47.91 and -28.25 and 0.1771
CCn1cc(N2Cc3nc(N4CCN(C)CC4)ncc3C2=O)cn1 | -1.754
Cc1ccccc1-n1c(C)cc(C(=O)N2CCn3c(C)nnc3C2)c1C | -10.25 and 8.528 and -8.016
COc1ccc(-c2nc(CNCCn3cccn3)cs2)cc1 | -6.07
[H][C@@]12CCN(c3ncccn3)C[C@]1([H])O[C@@H](C(=O)NCCOC)C2 | -7.632
O=C(CCc1nccs1)N1CCCC(n2ccnc2)C1 (centres unmarked) | -1.413
Cc1cc(C2CCCN2CCCS(=O)(=O)c2ccccc2)no1 (centres unmarked) | 1.127
Cc1nc(-c2ccc(Cl)s2)sc1C(=O)NCCS(N)(=O)=O | -9.106
Cc1ccc(C)n1-c1ccc(C(=O)NCCNc2ncccn2)cc1 | 11.49
O=C(O)C(F)(F)F.O=C1N(c2ccsc2)CCC12CCCN(CC1CC1)C2 (centres unmarked) | -0.9549
CC(C)(C)c1n[nH]c(C2CN(C(=O)c3cnc[nH]3)CCO2)n1 (centres unmarked) | 11.19
CN(Cc1ccc2c(c1)OCO2)C(=O)NCCc1cnn(C)c1 | 5.273
O=C(O)C(F)(F)F.O=C(O)C(F)(F)F.[H][C@@]12CN(Cc3ccco3)C[C@]1([H])OCCN2CC1CCCO1 (some centres unmarked) | 0.1189
O=C(O)C(F)(F)F.O=S(=O)(C1CC1)N1CC[C@]2(C[C@@H](Oc3ccccn3)CO2)C1 | -0.1117
O=c1cc(N2CCOCC2)cnn1CCc1ccc(F)cc1 | -2.466 and -5.477
Cc1cc(OCC(=O)NS(=O)(=O)c2c(C)noc2C)ccc1Cl | 4.67
Cl.Fc1ccc(Cc2cnc(C3CCCN3)cn2)cc1 (centres unmarked) | 4.131
CCCOc1ccc(C(=O)N2CCN3CCNC(=O)C3C2)cc1Cl (centres unmarked) | -29.02 and -27.12
CN(CC1COc2ccccc2O1)C(=O)NCCCn1cncn1 (centres unmarked) | 8.079
O=C(O)c1cc(-c2cccs2)nc2c(Br)cnn12 | 18.28
CCN(CC)CCNC(=O)CCc1c(C)nn(-c2ccc(Cl)cc2)c1C | -17.57
CN1CCCNC(=O)C12CCN(C(=O)c1ccc3[nH]cnc3c1)CC2 | -10.92
O=C(Cc1ccccc1)N1CCC2(CC1)CN(c1ncccn1)CCO2 | -9.809
O=C(O)C(F)(F)F.[H][C@@]12CN(CC)C[C@]1([H])[C@@H](OC)CCN2S(=O)(=O)c1ccccc1 | 3.576
O=C(NCc1csc(Br)c1)N1CCOCC1 | -7.596
CN(Cc1ccccc1)CC(O)Cn1cnc2c(Cl)cc(Cl)cc2c1=O (centres unmarked) | 2.442
O=C(O)C(F)(F)F.[H][C@@]12CN(Cc3cccs3)CCC[C@]1(C(=O)OCC)CN(C(C)=O)C2 | -9.846
Cc1cc(C)nc(C2CCN(C(=O)CCn3nnc4ccccc43)C2)n1 (centres unmarked) | 6.451
Cl.O=c1c2sccc2nc2n1CCN(Cc1ccc(F)c(F)c1)CC2 | 1.251
COCC(=O)N1CCCC(C(=O)N(C)CCn2ccnc2C)C1 (centres unmarked) | -14.62
Cc1nc(CN2CCc3cc(C(=O)O)c(N(C)C)nc3CC2)cs1.O=C(O)C(F)(F)F.O=C(O)C(F)(F)F | 4.047
Cc1nc(C)n(CC2CN(CCCOc3ccc(F)cc3)CCO2)n1 (centres unmarked) | 11.44
COCCn1cnc2ccc(NC(=O)c3c(C)noc3C)cc2c1=O | 2.106
[H][C@]12CN(c3ncccn3)C[C@@]1([H])S(=O)(=O)CC[C@@H]2C(=O)N(C)C | 6.582
Cc1cc(C)c2nc(CN[C@H]3CCCNC3)cc(O)c2c1 | 2.453
Cc1cc(CN(C)C(=O)NCc2ccnc(OC3CCCC3)c2)no1 | 0.7718
CC(C)NC(=O)Nc1cccc2c1CCN(S(C)(=O)=O)C2 | -10.78
O=C(NCCn1nc2ccccn2c1=O)c1scnc1Cl | 7.417
Nc1nccnc1C1CN(C(=O)c2cnc(C3CC3)nc2)CCO1 (centres unmarked) | -2.154
O=C(NCC1CC1)c1cc2c(s1)CCN2c1ncccn1 | 1.926
CCOC(=O)CNC(=O)NCc1cc(C)n(-c2ccccc2OC)c1C | 12.99
CCn1cc(C(=O)N2CCCC(c3[nH]ncc3S(C)(=O)=O)C2)cn1 (centres unmarked) | -7.067
C/C=C(\C)CN1CCC2(CCC(=O)N2OCc2ccccc2F)CC1 | 11.37
CN(C)C(=O)C1CN(Cc2ccsc2)CCN(S(C)(=O)=O)C1 (centres unmarked) | 5.234
[H][C@@]12CCN(C3CCOCC3)C[C@]1([H])O[C@H](C(=O)N(C)C)C2 | 9.211
CCS(=O)(=O)c1ccccc1N1CCC(NC(=O)c2ccc[nH]2)CC1 | -9.942
O=C(O)C(F)(F)F.O=C(O)C(F)(F)F.[H][C@@]12CN(Cc3cccc(F)c3)C[C@]1([H])CN(Cc1c(C)noc1C)C2 | 2.802
Cc1cc(C)n(C2CCCN(C(=O)CCOc3cccc(F)c3)C2)n1 (centres unmarked) | 4.186
O=C(O)C(F)(F)F.[H][C@@]12CCCO[C@]1([H])[C@H](NC(=O)C1CC1)CN2Cc1ccoc1 | -9.747
CC(C)(C)C(O)CN1CCN(C(=O)c2cccc3[nH]ncc23)CC1 (centres unmarked) | 15.62
CSC(C)(C)CNC(=O)NCc1cccc(-n2ccnc2)c1 | 4.814
NC(=O)c1cc(C2CCCN(CCOCC(F)(F)F)C2)n[nH]1 (centres unmarked) | 0.6441